Experimental data as given in PubChem BioAssay AID588497 (NMMLSC, 2011).
The whole screen tested about 360,000 compounds, of which about 780 (0.22%) were called active. This list was built around the results that the source calls inconclusive (neither active nor inactive); the mix of calls is not that of the screen. Cut-off read from the data, not from the text of the source: active = inhibition above about 35% (passing the limit was not always enough); inconclusive = no clear call, values can overlap the other calls.

Test system: Botulinum neurotoxin type F light chain protease (Clostridium botulinum)
Assay: BoNT/F light chain protease inhibitors, primary screen, biochemical, flow cytometry, MLPCN library (AID 588497); note: plate controls were buffer without enzyme for full effect and enzyme alone for no effect
Details: Multiplex microsphere protease cleavage assay, at 10 µM, active compounds read high

Row | SMILES | inhibition
1 | COc1cc(CCC(C)=O)ccc1OC(=O)c1c(F)cccc1Cl | inconclusive: 52.6%
2 | CC(=O)Nc1cccc(NC(=O)CSc2nc(=O)n(CCN3CCOCC3)c3c2CCC3)c1 | inconclusive: -11.4%
3 | COc1ccccc1CC(=O)Nc1ccon1 | inconclusive: -25%
4 | Cc1ccc(C)c(NC(=S)N2CCCC2)c1 | inactive: 6.3%
5 | O=C(NC1CCN(C(=O)c2cccs2)CC1)c1ccccc1 | inconclusive: 9.1%
6 | NC(=O)c1ccsc1NC(=O)COC(=O)Cc1n[nH]c(=O)c2ccccc12 | inconclusive: 4.4%
7 | CCOc1cc(/C=N/NC(N)=S)cc(Br)c1OCc1ccccc1C | inactive: 18.9%
8 | O=S(=O)(c1ccc(F)cc1)N1CCCC1c1cccnc1 (stereo not drawn) | inconclusive: -29.2%
9 | CCOc1ccc(NC(=O)COC(=O)C2CCC(=O)N2)c([N+](=O)[O-])c1 (stereo not drawn) | inconclusive: 18.3%
10 | Cc1nn(Cc2ccccc2)c2ncccc12 | inconclusive: 4.4%
11 | CCC(C)(NC=O)C(=O)Nc1c(C)cccc1C (stereo not drawn) | inconclusive: 59.1%
12 | O=C(CN1CCN(c2cnn(-c3ccccc3)c(=O)c2Cl)CC1)NC1CCS(=O)(=O)C1 (stereo not drawn) | inconclusive: -2.4%
13 | Cc1ccc(CNC(=O)c2ccc3c(=O)n(CCCN4CCCC4=O)c(=S)[nH]c3c2)cc1 | inconclusive: 21.4%
14 | Cc1cccc(NC(=O)N2C3CCCC2CC(NC(=O)C(C)(C)C)C3)c1 (stereo not drawn) | inconclusive: -15.5%
15 | COc1ccc(OCC(O)CNS(=O)(=O)c2cccc(Cl)c2)cc1 (stereo not drawn) | inconclusive: 17.4%
16 | C=C(C)COc1ccc(C2NC(=O)c3ccccc3O2)cc1OCC (stereo not drawn) | inconclusive: -37.8%
17 | Cc1ccc(C(=O)NCC(c2ccco2)N2CCc3ccccc32)cc1 (stereo not drawn) | inconclusive: -9.4%
18 | COc1ccc(NC(=O)c2cc(-c3ccco3)on2)cc1 | inactive: -6.5%
19 | O=C(CN(Cc1cccs1)C(=O)CNS(=O)(=O)c1ccccc1)NCc1ccco1 | inactive: 6.8%
20 | Cc1nc(-c2ccccc2)cc(-c2ccccc2)n1 | inconclusive: 16.8%

Row | SMILES | inhibition
21 | CNC(=O)Nc1ccc(C(O)(C(=O)OC)C(F)(F)F)cc1 (stereo not drawn) | inconclusive: 19.1%
22 | COc1ccc(N2CCN(C(=O)CSc3nnc4c(C)cc5ccc(C)c(C)c5n34)CC2)cc1 | inactive: -5.7%
23 | Nc1cccc(/C=C/c2ccncc2)c1 | inconclusive: -6%
24 | Cc1cc(Cl)ccc1OCC(=O)N(Cc1ccco1)C1CCS(=O)(=O)C1 (stereo not drawn) | inconclusive: -5.6%
25 | O=C(CCC(=O)c1cccs1)Nc1ncccc1O | inactive: -15.3%
26 | COc1cc(NC(=O)c2ccccc2)c(OC)cc1NC(=O)Cc1ccc(Br)cc1 | inconclusive: 28%
27 | COc1ccccc1CCc1nnc(N)s1 | inconclusive: -2.1%
28 | COc1ccc(-c2nc(N)nc(C(F)(F)F)c2-c2cscn2)c(O)c1 | inactive: -1%
29 | Nc1nc(Sc2c([N+](=O)[O-])cc(C(F)(F)F)cc2[N+](=O)[O-])n[nH]1 | inconclusive: 51.1%
30 | COc1cccc(CNc2nc3cc(-c4cscc4C)sc3c(=O)n2C)c1 | inactive: -2.2%
31 | CCCc1cc(N2CCOCC2)n2nc(C)c(-c3ccccc3)c2n1 | inconclusive: -11.6%
32 | CN(C)C(=S)Nc1ccc(Cl)cc1 | inconclusive: 7.4%
33 | COn1c(-c2ccc(Cl)cc2)nc2ncccc21 | inconclusive: -16.2%
34 | CCOc1ccccc1CN1CCN(Cc2c[nH]c3ccccc23)CC1CCO (stereo not drawn) | inconclusive: 18.5%
35 | Cc1cc([N+](=O)[O-])nn1CC(=O)N/N=C/c1ccccc1F | inconclusive: 73.7%
36 | Cc1[nH][nH]c(=O)c1N=Nc1ccc(Br)c(Cl)c1 | inconclusive: 11.4%
37 | Cn1nc(CC(=O)NC2CCCCC2)c2ccccc2c1=O | inactive: -3.1%
38 | COc1ccc(/C(C)=N/NC(=O)c2cc(C)[nH]n2)c(OC)c1 | inactive: -9.1%
39 | O=C(NNc1ccccc1C(F)(F)F)c1sccc1Br | inconclusive: 9%
40 | O=C(Nc1ccc(NC(=O)c2ccccc2Br)cc1)c1ccccc1 | inconclusive: -3.1%

Reformatted as labelled records: entries from further up.
Cc1nc(-c2ccccc2)cc(-c2ccccc2)n1
  inhibition: inconclusive: 16.8%
CNC(=O)Nc1ccc(C(O)(C(=O)OC)C(F)(F)F)cc1 (stereo not drawn)
  inhibition: inconclusive: 19.1%

More results follow:

Row | SMILES | inhibition
41 | Cc1cc(N2O[C@]34C=C[C@]25C[C@@H](O)CC[C@]5(C)C3CC[C@]2(C)[C@@H]([C@H](C)/C=C/[C@H](C)C(C)C)CC[C@H]24)no1 (stereo partly drawn) | inactive: 2.1%
42 | Cc1cccc2nc3ccccc3cc12 | inconclusive: 16.4%
43 | COc1cccc(C2Nc3ccc4ccccc4c3C3=C2C(=O)CC(C)(C)C3)c1OCC(=O)O (stereo not drawn) | inactive: -23.2%
44 | COc1cccc(-n2ccnc2SCC(=O)Nc2ccccc2)c1 | inconclusive: -27.3%
45 | COc1ccc(-c2[nH]ncc2CN2CCC(O)(c3ccc(Cl)cc3)CC2)cc1 | inconclusive: -32.2%
46 | O=C(CCC(=O)OCC(=O)c1ccc(Cl)cc1Cl)Nc1cccc2cccnc12 | inconclusive: 18.6%
47 | CNC(=O)N/N=C(\N)c1ccccn1 | inconclusive: 17.1%
48 | CCOC(=O)C1(CCOc2ccccc2)CCN(S(=O)(=O)N(C)C)CC1 | inconclusive: -0.2%
49 | CCN(CC)c1ccc(/C=N/NC(=O)Cc2ccc(OC)c(OC)c2)cc1 | inconclusive: -59.3%
50 | COc1cccc(NC(=S)N2CCc3cc(OC)c(OC)cc3C2)c1 | inconclusive: 21.6%
51 | CN1CCN(C2=NC(=O)/C(=C/c3cn[nH]c3-c3ccccc3)S2)CC1 | inconclusive: 25.9%
52 | CC1(C)CC(=O)C2=C(C1)NC(=O)NC2c1ccccc1Cl (stereo not drawn) | inconclusive: -30.5%
53 | CCCCC(=O)NC(c1ccc(Cl)cc1)c1ccc2cccnc2c1O (stereo not drawn) | inconclusive: 16.7%
54 | CNc1ccccc1C(=O)OCC(=O)N1CCN(c2ccc(OC)cc2)CC1 | inactive: 1.3%
55 | OCCCN=C1CCCc2c1[nH]c1ccc(Cl)cc21 | inconclusive: 172%
56 | O=C(N/N=C\c1ccc(CN(Cc2ccc(Cl)cc2)S(=O)(=O)c2ccccc2)o1)C(=O)Nc1ccc(F)cc1 | inconclusive: -30.3%
57 | Cc1ccc(S(=O)(=O)NCCCNS(=O)(=O)c2ccccc2)cc1 | inconclusive: -20.8%
58 | Cn1c(O)c(C(=Nc2ccccc2)SCc2ccc(Cl)cc2)c(=O)n(C)c1=O | inconclusive: -5.2%
